{"source": "patent US20030124105A1", "about": "“PROGRAMMED CELL DEATH GENES AND PROTEINS” (priority 1993, published 2003)", "tested_on": "mIch-2 expression in the thymus", "test": "Northern blot of mIch-2 expression", "assay_type": "in vivo", "note": "For at least one compound, name, drawing or mass did not settle the structure.", "data": [{"smiles": "C[C@@H]1C[C@H]2[C@@H]3CCC4=CC(=O)C=C[C@]4(C)[C@@]3(F)[C@@H](O)C[C@]2(C)[C@@]1(O)C(=O)CO", "note": "[dexamethasone]", "values": [{"measurement": "expression of mIch-2 in the thymus", "value": "can be induced"}]}]}
